Among all 360,000 compounds or so, about 780 (0.22%) were called active. The inconclusive results got no clear call from the source; some entries with a clear call stand among them for comparison. No stated cut-off is given here; in the data, active means inhibition above about 35% (passing the limit was not always enough); inconclusive means no clear call, values can overlap the other calls.
These molecules were tested on Botulinum neurotoxin type F light chain protease (Clostridium botulinum) (assay: BoNT/F light chain protease inhibitors, primary screen, biochemical, flow cytometry, MLPCN library (AID 588497; further: plate controls were buffer without enzyme for full effect and enzyme alone for no effect)). Details: Multiplex microsphere protease cleavage assay, at 10 µM, active compounds read high.

Row | Structure (SMILES) | inhibition
1 | COc1ccc(OC)c(C2C(C(=O)c3ccco3)=C(O)C(=O)N2Cc2cccnc2)c1 (stereo not drawn) | inconclusive: -14.1%
2 | O=C(COC(=O)c1ccccc1NCCO)Nc1cccc(S(=O)(=O)NC2=NCCCCC2)c1 | inconclusive: -2.4%
3 | CCCCn1c(N)c(N(Cc2ccccc2OC)C(=O)CN2C(=O)NC(C)(c3ccccc3)C2=O)c(=O)[nH]c1=O (stereo not drawn) | inconclusive: 15.1%
4 | Cc1nn(Cc2ccccc2)c(C)c1NC(=O)c1cc(-c2ccc3c(c2)OCO3)on1 | inactive: -2.5%
5 | COC(=O)c1ccccc1NC(=O)CSc1nnc(-c2cccnc2)n1C | inconclusive: -27.3%
6 | O=c1[nH]cnc2onc(-c3ccc(F)cc3)c12 | inactive: 20.4%
7 | COc1ccc(CCNC(=O)C(C)n2nc(C)n3c(cc4occc43)c2=O)cc1OC (stereo not drawn) | inactive: 7.1%
8 | O=C(c1cc2cc(Cl)ccc2[nH]1)N1CCCCC1 | inconclusive: -8.7%
9 | CC(C)Oc1ccc(CCC(=O)N/N=C/c2ccc3c(c2)OCO3)cc1 | inconclusive: -2.5%
10 | COc1cccc(-c2cnc3c(NC(C)=O)cc(-c4ccc(C(=O)NC5CC5)cc4)cn23)c1 | inactive: 0.2%
11 | CCOc1cc(NC(=O)c2ccccc2OC)c(OCC)cc1NC(=O)c1ccccc1 | inconclusive: 10.4%
12 | Cc1oncc1C(=O)Nc1cccc2ccccc12 | inconclusive: 1.4%
13 | Cc1ccc(-c2cnco2)cc1 | inconclusive: -91.7%
14 | Cc1ccccc1Cn1c(NC2CCCC2)nc2c1c(=O)[nH]c(=O)n2C | inconclusive: -11.9%
15 | CC1(C)C(c2ccccc2)=[N+]([O-])C2(CCCCC2=O)N1O (stereo not drawn) | inconclusive: 38.5%
16 | COc1ccc(N(CC(=O)Nc2ccc(OC)c(OC)c2)S(=O)(=O)c2ccccc2)cc1Cl | inconclusive: -41.5%
17 | CSc1ccn(CCC(=O)O)c(=O)n1 | inconclusive: 20.4%
18 | Cc1nnc(SCCn2c(N3CCN(C)CC3)nc3c2c(=O)n(C)c(=O)n3C)s1 | inconclusive: 0.1%
19 | COc1ccccc1N1CCN(C(=O)C(NS(=O)(=O)c2cccs2)c2ccccc2)CC1 (stereo not drawn) | inactive: -1.4%
20 | O=C(NNc1cc(Cl)ccc1Cl)c1c(F)cccc1Cl | inconclusive: 67.1%

Two of these compounds in another layout.
Row	Structure (SMILES)	inhibition
7	COc1ccc(CCNC(=O)C(C)n2nc(C)n3c(cc4occc43)c2=O)cc1OC (stereo not drawn)	inactive: 7.1%
8	O=C(c1cc2cc(Cl)ccc2[nH]1)N1CCCCC1	inconclusive: -8.7%

Following part:

Row | Structure (SMILES) | inhibition
21 | Cc1ccc(-c2nc3ccc(Cl)cn3c2CC2CCCCC2)cc1 | inconclusive: 11%
22 | Cc1ccc(NC2CCCN(C(=O)c3ccoc3)C2)cc1C (stereo not drawn) | inactive: -3.7%
23 | c1ccc(-c2nc3ccccc3s2)nc1 | inconclusive: -14.9%
24 | COc1ccc(OCCN2CCOCC2)cc1 | inconclusive: -16.1%
25 | O=C(CNc1cccc(S(=O)(=O)N2CCCCC2)c1)Nc1cccc(F)c1 | inconclusive: -11.1%
26 | COc1ccc(C(=O)Nc2ccccc2N2CCOCC2)cc1S(=O)(=O)N1CCOCC1 | inconclusive: 2.6%
27 | COc1ccccc1C1CCN(c2ccc([N+](=O)[O-])cn2)CC1 | inconclusive: -51.3%
28 | Cc1cc(C(=O)Nc2ncn(Cc3ccc(F)cc3)n2)ccc1[N+](=O)[O-] | inactive: -0.2%
29 | O=C(O)C1(Nc2ccc([N+](=O)[O-])cc2[N+](=O)[O-])CCCC1 | inactive: -1.9%
30 | COCCN1C2=C(COC(C)(C)C2)C(=S)NC1c1ccccc1 (stereo not drawn) | inconclusive: 55.7%
31 | CCOC(=O)C1CSC(CC(=O)Nc2ccc(OC(F)(F)F)cc2)C(=O)N1 (stereo not drawn) | inconclusive: 9.2%
32 | Cc1ccccc1C(=O)NC(=S)N(Cc1ccccc1)c1ccccn1 | inconclusive: 4.9%
33 | S=c1[nH]nc(-c2ccccc2Cl)n1/N=C/C=C/c1ccco1 | inconclusive: -15.1%
34 | CN1C(=O)N(C)C2(c3ccccc3)N(C)C(=O)NC12c1ccccc1 (stereo not drawn) | inconclusive: 4.6%
35 | Cc1ccc(NC(=O)N2CCCc3ccccc32)cc1C | inactive: -6.2%
36 | Cc1cc(C(=O)N(C)C2CCCCC2)no1 | inactive: 7.5%
37 | CN1CCN(c2cc(C(F)(F)F)nc(-c3ccccn3)n2)CC1 | inactive: -6%
38 | C#CCOc1c(/C=C\c2nc(O)c([N+](=O)[O-])c(=O)[nH]2)cc(Br)cc1OC | inconclusive: 23.4%
39 | Cc1cc(-c2n[nH]c(=S)n2/N=C/c2ccco2)n[nH]1 | inconclusive: -43.6%
40 | Cc1nc(-c2ccccc2)sc1-c1n[nH]c(=S)n1C | active: 53.7%

Row | Structure (SMILES) | inhibition
41 | CN(C(=O)c1ccc(NC(=O)Cc2ccc(NC(=O)C3CCN(C(=O)C4CCC4)CC3)cc2)cc1)C1CC1 | inactive: 5.7%
42 | COCCn1c(SC(C)C(=O)NCC2CCCO2)nc2scc(-c3ccc(F)cc3)c2c1=O (stereo not drawn) | inconclusive: -2.8%
43 | CC(OC(=O)/C=C/c1ccccc1Cl)C(=O)NC1CCCCC1C (stereo not drawn) | inconclusive: 0.7%
44 | O=c1oc(-c2ccc(O)c(O)c2)cc2cc(O)cc(O)c12 | inactive: -11.4%
45 | COC(=O)c1cc(NS(=O)(=O)c2cccc(Cl)c2)ccc1N1CCOCC1 | inconclusive: 6%
46 | COc1c(C=NNC(N)=O)c(OC)c(OC)c2c1CCO2 | inactive: 4%
47 | Cc1ccc(OCCCC(=O)Nc2ccc(S(N)(=O)=O)cc2)cc1 | active: 40.9%
48 | O=C(Nc1ccc(S(=O)(=O)Nc2nccs2)cc1)C(F)(F)F | inconclusive: 25.4%
49 | Cc1cc(-c2nc(C)c(C(=O)NNC(=O)NC(C)C)s2)no1 | inconclusive: 27.8%
50 | COc1cnc(-c2ccccn2)nc1N(C)c1ccccc1 | inconclusive: 0.1%
51 | CCOC(=O)c1sc(NC(=O)c2ccc(Br)o2)cc1C | inactive: -4.4%
52 | CCCSc1nc2sc3c(c2c(=O)[nH]1)CCN(Cc1ccccc1)C3 | inconclusive: 38.7%
53 | Cc1cc(C(=O)NNC(=O)c2ccc(Cl)c(S(N)(=O)=O)c2)c(C)o1 | inactive: 0.3%
54 | Cc1nn(C)cc1-c1cc(C(=O)O)c2ccccc2n1 | inactive: -8.8%
55 | CCc1nc2cc(Cl)c(Cl)cc2[nH]1 | inactive: 1.3%
56 | CCOC(=O)c1ccc(NC(=O)Cn2nnc(-c3ccccc3)n2)cc1 | inconclusive: 6.9%
57 | COc1ccc2c(c1)c(C(=O)N/N=C/c1ccc(Cl)cc1)c(C)n2C | inconclusive: -67.8%
58 | COc1cc(C)ccc1S(=O)(=O)NC(=O)C1(C)CCN1C(=O)Cc1ccccc1Cl (stereo not drawn) | inactive: -0.6%

— PubChem BioAssay AID588497 (NMMLSC, 2011)
